Measurements reported in PubChem BioAssay AID1224830 (NIAID, 2016)
Screen: 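Regulators of TLR4 signalling towards TNF-alpha in macrophage-like cells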 (primary screen). Cells: human THP-1 monocytic leukaemia cells, TNF dual-luciferase reporter clone, PMA-differentiated to macrophage-like cells. Reagents: siRNA pool against human genes, 50 nM. Duration: LPS for 4 h, given about 3 days after siRNA transfection. Challenge: bacterial LPS (TLR4 ligand), 10 ng/ml. Measurement: 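TNF firefly reporter luminescence divided by renilla, normalised to the plate median, then turned into a robust z-score for each replicate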. Reading the numbers: TNF reporter robust z-score: higher = stronger TNF reporter response to LPS. Hit rule: 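a well is active when its z-score exceeds 2.8 or falls below -1.5; control wells carry no call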.
In all, the deposit lists about 18,000 reagents; shown is a part drawn at random. Of all reagents, about 2,900 (16%) got an active call. 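Calls are made per well; low scores hint the gene aids the LPS response, high scores that it dampens it.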 Repeated entries: four replicate wells of each siRNA pool. No sequences are given here.

gene,TNF reporter robust z-score,Call
SPRR2G,2.84,active
SPRR2G,2.06,inactive
SPRR2G,2.72,inactive
SPRR2G,2.08,inactive
UBE2U,-0.64,inactive
UBE2U,0.17,inactive
UBE2U,0.55,inactive
UBE2U,0.43,inactive
TIMM13,-1.19,inactive
TIMM13,-1.12,inactive
TIMM13,-0.81,inactive
TIMM13,-0.79,inactive
ENO2,-0.25,inactive
ENO2,0.61,inactive
ENO2,-0.01,inactive
ENO2,1.18,inactive
ZSCAN20,-0.84,inactive
ZSCAN20,-1.65,active
ZSCAN20,-0.77,inactive
ZSCAN20,-0.56,inactive
SLC25A14,-1.59,active
SLC25A14,-1.75,active
SLC25A14,-2.17,active
SLC25A14,-1.48,inactive
TAF6L,-0.49,inactive
TAF6L,-0.16,inactive
TAF6L,-0.26,inactive
TAF6L,0.04,inactive
UBE2D2,0.39,inactive
UBE2D2,4.31,active
UBE2D2,-0.18,inactive
UBE2D2,1.29,inactive
GPR34,1.07,inactive
GPR34,1.24,inactive
GPR34,1.14,inactive
GPR34,0.03,inactive
HSD11B1L,-0.01,inactive
HSD11B1L,0.09,inactive
HSD11B1L,1.14,inactive
HSD11B1L,0.81,inactive
ZFAND2A,-0.78,inactive
ZFAND2A,-0.3,inactive
ZFAND2A,-0.67,inactive
ZFAND2A,-0.41,inactive
SDC2,0.8,inactive
SDC2,-0.27,inactive
SDC2,-0.76,inactive
SDC2,-0.04,inactive
